Source: patent US4420643A, “Extraction of phenols from aqueous solutions” (priority 1982, dated 1983)

Experiment: Extraction of phenol from 1% aqueous solution with high boiling solvents alone and with TOPO (Example 3, Table III)
Format: physicochemical
Conditions: for extraction efficiency in the presence of TOPO: solvent + TOPO, A/O ratios of 0.5 and 1.0; for extraction efficiency when used alone: solvent alone
Protocol: A number of high boiling solvents, which would allow recovery of the extracted phenol without the necessity of distilling the solvent, were evaluted and the distribution coefficient calculated for the solvent alone and containing 133 g/l of TOPO. The aqueous solution extracted contained 1% phenol, which was contacted with the solvent or solvent plus TOPO for 10 minutes at 24° C.

Substance | extraction efficiency in the presence of TOPO | extraction efficiency when used alone
Diisopropyl naphthalene | surprisingly efficient in the presence of TOPO | inefficient when used alone
Isopropyl naphthalene | surprisingly efficient in the presence of TOPO | inefficient when used alone
